Experimental data taken from article PMC5241866.
No constants are given. Whether binding was seen depends on the method and setting. In cells and extracts the contact can be indirect. Some results given as binding are weak or reduced against the parent protein; the word gives no strength.

Protein sequences, listed by entry. Tags and fused reporters are not part of them.
UniProt P10085: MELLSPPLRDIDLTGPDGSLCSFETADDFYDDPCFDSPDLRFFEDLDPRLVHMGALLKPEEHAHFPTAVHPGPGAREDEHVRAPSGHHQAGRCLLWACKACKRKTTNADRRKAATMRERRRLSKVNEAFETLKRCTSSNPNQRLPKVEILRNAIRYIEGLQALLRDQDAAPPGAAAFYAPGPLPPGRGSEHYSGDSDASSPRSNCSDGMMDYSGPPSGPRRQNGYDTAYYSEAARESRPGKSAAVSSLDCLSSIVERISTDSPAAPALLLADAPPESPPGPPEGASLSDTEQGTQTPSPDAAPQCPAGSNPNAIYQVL
UniProt Q6P9Z1: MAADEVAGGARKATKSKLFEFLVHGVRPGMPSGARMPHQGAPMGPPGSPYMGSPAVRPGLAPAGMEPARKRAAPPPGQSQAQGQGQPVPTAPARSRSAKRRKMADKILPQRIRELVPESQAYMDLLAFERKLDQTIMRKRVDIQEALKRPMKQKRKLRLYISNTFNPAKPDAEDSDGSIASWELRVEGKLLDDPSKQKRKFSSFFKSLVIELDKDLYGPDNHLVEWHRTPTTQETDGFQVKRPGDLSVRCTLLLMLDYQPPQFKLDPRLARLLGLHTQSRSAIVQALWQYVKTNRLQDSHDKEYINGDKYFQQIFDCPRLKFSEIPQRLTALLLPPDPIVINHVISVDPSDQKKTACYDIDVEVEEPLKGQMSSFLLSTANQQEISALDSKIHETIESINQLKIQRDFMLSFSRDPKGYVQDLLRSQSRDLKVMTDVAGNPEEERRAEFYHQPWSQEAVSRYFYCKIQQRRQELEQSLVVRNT
UniProt Q3TKT4: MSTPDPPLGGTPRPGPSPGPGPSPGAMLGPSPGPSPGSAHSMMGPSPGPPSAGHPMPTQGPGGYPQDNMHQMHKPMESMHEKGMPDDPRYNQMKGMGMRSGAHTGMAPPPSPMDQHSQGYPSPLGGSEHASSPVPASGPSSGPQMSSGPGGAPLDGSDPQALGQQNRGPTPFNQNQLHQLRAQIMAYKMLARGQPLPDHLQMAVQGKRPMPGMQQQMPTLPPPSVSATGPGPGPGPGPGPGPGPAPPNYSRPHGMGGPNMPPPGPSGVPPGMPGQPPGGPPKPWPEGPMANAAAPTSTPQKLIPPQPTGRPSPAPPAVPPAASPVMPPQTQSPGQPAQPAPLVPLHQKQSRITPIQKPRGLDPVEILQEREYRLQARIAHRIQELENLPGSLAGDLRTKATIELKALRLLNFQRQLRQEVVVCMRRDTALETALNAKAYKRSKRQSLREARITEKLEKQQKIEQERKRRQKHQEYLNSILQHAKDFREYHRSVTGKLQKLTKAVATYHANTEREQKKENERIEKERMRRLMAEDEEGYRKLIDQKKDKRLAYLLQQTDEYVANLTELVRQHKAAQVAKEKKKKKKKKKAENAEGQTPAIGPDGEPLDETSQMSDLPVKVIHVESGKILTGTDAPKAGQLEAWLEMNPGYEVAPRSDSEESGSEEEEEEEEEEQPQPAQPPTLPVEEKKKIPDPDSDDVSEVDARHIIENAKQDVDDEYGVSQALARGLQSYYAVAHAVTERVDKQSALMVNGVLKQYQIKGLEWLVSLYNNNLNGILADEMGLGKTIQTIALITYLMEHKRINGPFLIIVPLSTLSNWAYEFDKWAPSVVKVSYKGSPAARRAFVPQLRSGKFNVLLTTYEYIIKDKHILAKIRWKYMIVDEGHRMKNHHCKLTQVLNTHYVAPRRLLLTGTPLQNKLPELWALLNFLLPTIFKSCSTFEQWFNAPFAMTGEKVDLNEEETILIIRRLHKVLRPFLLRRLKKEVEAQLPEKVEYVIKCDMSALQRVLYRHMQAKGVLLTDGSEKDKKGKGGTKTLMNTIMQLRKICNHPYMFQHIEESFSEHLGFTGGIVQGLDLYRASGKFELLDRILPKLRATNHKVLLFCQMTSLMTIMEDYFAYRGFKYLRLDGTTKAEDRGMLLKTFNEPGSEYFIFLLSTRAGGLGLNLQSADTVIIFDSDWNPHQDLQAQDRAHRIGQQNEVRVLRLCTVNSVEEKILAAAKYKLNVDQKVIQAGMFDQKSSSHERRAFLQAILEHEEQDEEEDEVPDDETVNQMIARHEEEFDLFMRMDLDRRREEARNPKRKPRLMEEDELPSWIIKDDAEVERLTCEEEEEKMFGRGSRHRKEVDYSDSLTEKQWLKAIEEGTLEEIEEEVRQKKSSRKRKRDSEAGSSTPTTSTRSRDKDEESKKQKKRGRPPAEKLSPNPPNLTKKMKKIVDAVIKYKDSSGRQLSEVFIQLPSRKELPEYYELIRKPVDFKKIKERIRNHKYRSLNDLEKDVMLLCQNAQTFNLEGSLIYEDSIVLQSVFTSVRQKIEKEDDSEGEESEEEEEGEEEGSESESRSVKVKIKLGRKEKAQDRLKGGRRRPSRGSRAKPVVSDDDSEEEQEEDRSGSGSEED

Target: MyoD (myogenic differentiation) (mouse (endogenous in C2C12)) (UniProt P10085)
Assay: co-IP; anti-MyoD antibody immunoprecipitation from lysates (200 ug protein) of differentiating C2C12 cells stably overexpressing Linc-RAM or shRNA targeting Linc-RAM, and control cells; western blot for Baf60c and Brg1

Row | Substance | binding
1 | BAF60c (SMARCD3) (from UniProt Q6P9Z1 1-483) | binds
2 | Brg1 (from UniProt Q3TKT4 1-1613) | binds
